# Assay results: the supplement of paper PMC11006884
# Amino acid sequences for entries named in this document (tags omitted). A change or cut given only in a name is not applied to a line headed by its entry.
# UniProt Q9BV68: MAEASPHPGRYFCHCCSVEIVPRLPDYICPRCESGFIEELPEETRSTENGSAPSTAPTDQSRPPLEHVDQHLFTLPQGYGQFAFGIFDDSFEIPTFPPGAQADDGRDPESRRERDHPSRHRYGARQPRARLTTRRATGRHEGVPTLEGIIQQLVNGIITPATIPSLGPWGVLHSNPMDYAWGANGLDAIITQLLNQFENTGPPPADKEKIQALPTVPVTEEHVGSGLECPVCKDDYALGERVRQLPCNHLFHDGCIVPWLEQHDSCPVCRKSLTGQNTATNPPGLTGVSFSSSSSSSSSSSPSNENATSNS
# UniProt Q9C0C2: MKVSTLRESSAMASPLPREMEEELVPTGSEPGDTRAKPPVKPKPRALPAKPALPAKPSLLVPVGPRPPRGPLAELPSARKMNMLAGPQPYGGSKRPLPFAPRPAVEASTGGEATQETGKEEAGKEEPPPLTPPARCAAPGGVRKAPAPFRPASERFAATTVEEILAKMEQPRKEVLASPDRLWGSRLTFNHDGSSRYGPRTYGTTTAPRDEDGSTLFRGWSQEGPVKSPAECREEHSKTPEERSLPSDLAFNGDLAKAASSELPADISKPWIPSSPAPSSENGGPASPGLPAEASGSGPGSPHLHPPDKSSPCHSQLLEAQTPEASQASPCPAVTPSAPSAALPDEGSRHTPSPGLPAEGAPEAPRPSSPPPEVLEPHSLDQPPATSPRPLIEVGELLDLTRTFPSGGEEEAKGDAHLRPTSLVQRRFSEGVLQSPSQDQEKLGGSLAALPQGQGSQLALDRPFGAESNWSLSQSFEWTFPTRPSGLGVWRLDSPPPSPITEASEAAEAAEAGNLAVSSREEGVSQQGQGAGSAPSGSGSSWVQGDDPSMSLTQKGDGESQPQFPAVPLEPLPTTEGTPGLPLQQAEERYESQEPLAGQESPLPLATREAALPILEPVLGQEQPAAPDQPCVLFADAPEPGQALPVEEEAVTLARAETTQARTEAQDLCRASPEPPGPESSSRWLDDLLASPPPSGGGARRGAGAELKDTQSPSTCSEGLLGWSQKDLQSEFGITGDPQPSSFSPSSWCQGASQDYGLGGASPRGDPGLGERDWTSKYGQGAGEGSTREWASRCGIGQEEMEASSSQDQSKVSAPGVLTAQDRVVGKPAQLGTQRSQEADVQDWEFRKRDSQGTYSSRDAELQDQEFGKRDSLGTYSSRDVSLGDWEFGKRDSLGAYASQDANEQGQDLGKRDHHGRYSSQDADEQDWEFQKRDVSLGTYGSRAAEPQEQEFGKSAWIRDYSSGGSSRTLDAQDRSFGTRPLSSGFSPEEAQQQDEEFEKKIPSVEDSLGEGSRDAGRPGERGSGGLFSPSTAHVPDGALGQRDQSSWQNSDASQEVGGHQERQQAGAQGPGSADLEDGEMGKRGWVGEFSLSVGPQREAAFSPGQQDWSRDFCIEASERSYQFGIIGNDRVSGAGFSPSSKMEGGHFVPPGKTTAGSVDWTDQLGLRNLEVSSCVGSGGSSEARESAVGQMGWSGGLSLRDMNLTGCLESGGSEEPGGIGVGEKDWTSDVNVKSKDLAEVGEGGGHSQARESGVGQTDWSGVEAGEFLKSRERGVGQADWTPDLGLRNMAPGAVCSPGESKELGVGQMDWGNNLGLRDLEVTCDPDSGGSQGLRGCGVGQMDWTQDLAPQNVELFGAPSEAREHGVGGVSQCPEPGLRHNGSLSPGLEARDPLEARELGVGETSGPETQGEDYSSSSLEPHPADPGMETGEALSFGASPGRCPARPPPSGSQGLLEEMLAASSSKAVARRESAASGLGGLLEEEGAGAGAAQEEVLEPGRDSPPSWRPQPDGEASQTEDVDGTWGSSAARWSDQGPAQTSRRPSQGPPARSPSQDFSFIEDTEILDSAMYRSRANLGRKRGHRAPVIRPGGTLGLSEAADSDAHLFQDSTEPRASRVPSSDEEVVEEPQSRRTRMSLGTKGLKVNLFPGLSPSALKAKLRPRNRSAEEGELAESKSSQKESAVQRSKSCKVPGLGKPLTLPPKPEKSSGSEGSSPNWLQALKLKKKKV
# UniProt Q9BY77: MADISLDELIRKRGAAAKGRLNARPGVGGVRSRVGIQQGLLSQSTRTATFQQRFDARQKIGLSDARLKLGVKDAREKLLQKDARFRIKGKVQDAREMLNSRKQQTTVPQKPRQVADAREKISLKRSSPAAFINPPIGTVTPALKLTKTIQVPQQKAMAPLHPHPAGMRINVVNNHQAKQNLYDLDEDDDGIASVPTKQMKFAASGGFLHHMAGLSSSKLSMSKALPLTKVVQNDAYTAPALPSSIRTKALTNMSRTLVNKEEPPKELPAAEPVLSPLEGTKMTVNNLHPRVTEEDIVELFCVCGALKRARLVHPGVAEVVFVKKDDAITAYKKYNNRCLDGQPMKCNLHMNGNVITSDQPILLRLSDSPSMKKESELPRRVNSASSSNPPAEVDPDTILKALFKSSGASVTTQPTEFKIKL
# UniProt Q9BUK6: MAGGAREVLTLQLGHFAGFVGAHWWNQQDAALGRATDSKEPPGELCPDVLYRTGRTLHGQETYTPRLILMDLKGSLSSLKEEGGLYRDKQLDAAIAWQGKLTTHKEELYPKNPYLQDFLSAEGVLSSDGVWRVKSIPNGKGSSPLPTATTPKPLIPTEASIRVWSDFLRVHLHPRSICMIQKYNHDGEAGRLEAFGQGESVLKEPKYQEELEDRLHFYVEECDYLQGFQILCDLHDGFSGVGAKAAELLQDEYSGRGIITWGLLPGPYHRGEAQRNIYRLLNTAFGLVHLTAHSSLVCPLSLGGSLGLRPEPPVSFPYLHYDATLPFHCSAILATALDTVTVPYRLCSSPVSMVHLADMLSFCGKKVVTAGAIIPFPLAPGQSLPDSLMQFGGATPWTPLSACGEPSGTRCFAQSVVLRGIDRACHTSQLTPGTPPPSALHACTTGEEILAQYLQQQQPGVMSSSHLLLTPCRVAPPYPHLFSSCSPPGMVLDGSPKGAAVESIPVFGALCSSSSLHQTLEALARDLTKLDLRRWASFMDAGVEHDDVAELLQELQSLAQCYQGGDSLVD
# UniProt Q9BZL6: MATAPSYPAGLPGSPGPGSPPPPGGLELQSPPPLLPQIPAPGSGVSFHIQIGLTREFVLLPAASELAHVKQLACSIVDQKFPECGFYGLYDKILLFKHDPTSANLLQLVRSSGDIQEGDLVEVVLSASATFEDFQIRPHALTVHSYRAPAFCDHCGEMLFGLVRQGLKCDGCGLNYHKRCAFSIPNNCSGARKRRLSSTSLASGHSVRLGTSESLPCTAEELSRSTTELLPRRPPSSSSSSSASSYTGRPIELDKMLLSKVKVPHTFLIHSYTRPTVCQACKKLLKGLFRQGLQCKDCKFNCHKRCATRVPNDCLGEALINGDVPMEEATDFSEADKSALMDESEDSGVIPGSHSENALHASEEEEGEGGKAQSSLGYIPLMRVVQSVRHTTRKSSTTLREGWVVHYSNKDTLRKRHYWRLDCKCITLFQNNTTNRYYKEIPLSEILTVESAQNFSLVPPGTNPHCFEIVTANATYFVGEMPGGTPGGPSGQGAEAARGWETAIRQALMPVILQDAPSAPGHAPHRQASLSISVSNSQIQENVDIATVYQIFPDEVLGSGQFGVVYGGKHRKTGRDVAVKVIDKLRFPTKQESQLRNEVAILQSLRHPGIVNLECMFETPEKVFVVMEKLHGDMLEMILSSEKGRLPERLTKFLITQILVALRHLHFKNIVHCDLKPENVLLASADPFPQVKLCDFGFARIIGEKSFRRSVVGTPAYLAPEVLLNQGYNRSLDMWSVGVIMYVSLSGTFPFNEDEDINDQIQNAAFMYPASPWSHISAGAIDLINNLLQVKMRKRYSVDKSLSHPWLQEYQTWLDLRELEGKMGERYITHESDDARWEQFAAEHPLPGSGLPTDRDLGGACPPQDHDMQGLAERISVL
# UniProt Q9BRP1: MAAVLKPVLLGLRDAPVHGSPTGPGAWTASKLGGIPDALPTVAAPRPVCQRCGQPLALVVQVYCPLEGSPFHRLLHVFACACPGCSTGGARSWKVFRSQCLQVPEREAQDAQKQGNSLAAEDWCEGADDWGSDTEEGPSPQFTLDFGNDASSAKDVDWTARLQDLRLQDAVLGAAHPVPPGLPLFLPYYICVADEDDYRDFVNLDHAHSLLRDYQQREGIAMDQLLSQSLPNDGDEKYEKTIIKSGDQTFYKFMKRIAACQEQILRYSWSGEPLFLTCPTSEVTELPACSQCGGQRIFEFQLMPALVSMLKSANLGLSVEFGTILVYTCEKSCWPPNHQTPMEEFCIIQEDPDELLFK
# UniProt Q9H2J4: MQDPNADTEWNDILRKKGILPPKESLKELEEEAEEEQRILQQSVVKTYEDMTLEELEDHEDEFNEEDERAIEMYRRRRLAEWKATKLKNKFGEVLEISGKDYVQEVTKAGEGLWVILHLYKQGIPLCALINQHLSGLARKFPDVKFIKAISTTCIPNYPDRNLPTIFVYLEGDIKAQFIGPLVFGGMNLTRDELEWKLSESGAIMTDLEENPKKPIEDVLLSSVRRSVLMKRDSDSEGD
# UniProt Q9BTW9: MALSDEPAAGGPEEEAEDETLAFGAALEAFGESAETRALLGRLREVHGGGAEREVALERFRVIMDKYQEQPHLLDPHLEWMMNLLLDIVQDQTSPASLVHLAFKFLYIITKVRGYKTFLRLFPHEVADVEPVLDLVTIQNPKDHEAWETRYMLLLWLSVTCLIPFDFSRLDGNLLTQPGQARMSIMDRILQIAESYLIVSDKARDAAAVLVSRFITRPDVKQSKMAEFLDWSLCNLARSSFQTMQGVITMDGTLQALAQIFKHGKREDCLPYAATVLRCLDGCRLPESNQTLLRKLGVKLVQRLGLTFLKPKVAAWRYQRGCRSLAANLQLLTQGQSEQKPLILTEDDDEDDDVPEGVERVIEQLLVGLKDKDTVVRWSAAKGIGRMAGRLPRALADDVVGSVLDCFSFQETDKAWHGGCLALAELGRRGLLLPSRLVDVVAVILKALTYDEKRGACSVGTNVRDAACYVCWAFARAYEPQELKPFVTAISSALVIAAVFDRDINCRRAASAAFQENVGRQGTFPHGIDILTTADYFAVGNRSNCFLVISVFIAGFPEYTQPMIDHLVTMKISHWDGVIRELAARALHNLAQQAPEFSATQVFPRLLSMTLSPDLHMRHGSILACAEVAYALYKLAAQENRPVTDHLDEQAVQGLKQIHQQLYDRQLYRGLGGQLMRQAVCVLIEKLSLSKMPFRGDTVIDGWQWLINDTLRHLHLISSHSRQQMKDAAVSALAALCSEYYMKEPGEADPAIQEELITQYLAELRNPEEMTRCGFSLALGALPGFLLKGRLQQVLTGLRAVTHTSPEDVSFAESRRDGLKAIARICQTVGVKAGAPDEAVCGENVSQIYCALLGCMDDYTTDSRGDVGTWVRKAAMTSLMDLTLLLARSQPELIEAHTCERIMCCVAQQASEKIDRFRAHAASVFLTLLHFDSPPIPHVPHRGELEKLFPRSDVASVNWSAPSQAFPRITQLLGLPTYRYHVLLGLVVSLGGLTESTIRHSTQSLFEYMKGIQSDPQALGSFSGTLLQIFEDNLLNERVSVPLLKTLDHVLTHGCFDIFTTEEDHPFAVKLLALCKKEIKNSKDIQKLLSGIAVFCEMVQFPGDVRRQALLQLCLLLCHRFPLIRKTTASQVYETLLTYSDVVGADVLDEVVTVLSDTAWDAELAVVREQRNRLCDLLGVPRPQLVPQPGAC
# UniProt Q9BV19: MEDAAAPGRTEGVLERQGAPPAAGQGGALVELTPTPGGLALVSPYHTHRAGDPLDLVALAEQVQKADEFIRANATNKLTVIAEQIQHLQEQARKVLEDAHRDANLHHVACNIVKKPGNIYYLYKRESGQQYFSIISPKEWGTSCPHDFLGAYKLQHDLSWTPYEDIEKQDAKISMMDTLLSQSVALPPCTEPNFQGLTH
# UniProt Q9BUF5, whole entry, looked up: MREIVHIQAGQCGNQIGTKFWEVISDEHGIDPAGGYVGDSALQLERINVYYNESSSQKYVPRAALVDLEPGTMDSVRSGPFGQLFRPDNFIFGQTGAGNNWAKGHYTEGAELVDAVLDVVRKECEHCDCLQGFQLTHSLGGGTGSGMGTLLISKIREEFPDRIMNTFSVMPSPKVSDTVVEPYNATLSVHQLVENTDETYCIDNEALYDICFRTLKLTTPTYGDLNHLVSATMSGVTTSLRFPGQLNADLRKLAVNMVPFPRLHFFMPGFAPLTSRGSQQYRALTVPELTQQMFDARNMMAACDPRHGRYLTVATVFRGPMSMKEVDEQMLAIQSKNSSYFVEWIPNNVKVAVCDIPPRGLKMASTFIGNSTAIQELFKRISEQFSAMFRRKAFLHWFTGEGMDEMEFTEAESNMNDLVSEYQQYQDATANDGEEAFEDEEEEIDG
# This is a selection; strong and weak results do not stand in their true shares.
# Compound: COC(=O)C#Cc1ccccc1 [methyl 3-phenylpropiolate]
# Test: log2 ratio of iodoacetamide-alkyne labeling of the cysteine site, DMSO over compound (competition); higher = stronger covalent engagement of the cysteine by the compound, active = 1 or more
# Settings: 500 µM; treatment time 1 h; system: HEK293T cell lysate
# Procedure, shortened: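 HEK293T lysate at 2 mg/mL was treated with vehicle or electrophile (500 µM) for 1 h at ambient temperature, then labelled with iodoacetamide alkyne (1 h), clicked to sCIP-TMT reagents, pooled, digested with trypsin overnight at 37 °C, enriched on streptavidin and eluted with acid. Peptides were analysed by Orbitrap Eclipse LC-MS/MS with FAIMS and quantified in FragPipe, using duplicate channels and three replicates, with cysteines quantified in only one replicate excluded. The log2 competition ratio for each cysteine is the mean control-channel reporter intensity divided by the mean compound-channel reporter intensity.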
row,Target,log2 ratio of iodoacetamide-alkyne labeling
1,RIOK1 C264 (UniProt Q9BRS2),inactive: 0.179
2,NUP85 C515 (UniProt Q9BW27),inactive: 0.308
3,XRN2 C736 (UniProt Q9H0D6),inactive: 0.0826
4,RNF126 C229 (UniProt Q9BV68),inactive: -0.457
5,TNKS1BP1 C716 (UniProt Q9C0C2),inactive: 0.621
6,SLK C1138 (UniProt Q9H2G2),inactive: 0.0928
7,POLDIP3 C338 (UniProt Q9BY77),inactive: 0.292
8,MSTO1 C46 (UniProt Q9BUK6),inactive: 0.147
9,UACA C994 (UniProt Q9BZF9),inactive: 0.315
10,UniProt Q9BTE3_C636,inactive: 0.285
11,SETD2 C1241 (UniProt Q9BYW2),inactive: 0.267
12,RBM4 C31 (UniProt Q9BWF3),inactive: 0.113
13,PRKD2 C217 (UniProt Q9BZL6),inactive: 0.461
14,ANAPC1 C729 (UniProt Q9H1A4),inactive: 0.201
15,UniProt Q9BXP5_C490,inactive: 0.11
16,TRIOBP C2233 (UniProt Q9H2D6),inactive: 0.271
17,PDCD2L C278 (UniProt Q9BRP1),inactive: 0.0309
18,ADNP C31 (UniProt Q9H2P0),inactive: 0.0289
19,PDCL3 C127 (UniProt Q9H2J4),inactive: -0.0528

# Some of the entries so far, bar-delimited:
row | Target | log2 ratio of iodoacetamide-alkyne labeling
17 | PDCD2L C278 (UniProt Q9BRP1) | inactive: 0.0309
18 | ADNP C31 (UniProt Q9H2P0) | inactive: 0.0289

# The list continues.

row,Target,log2 ratio of iodoacetamide-alkyne labeling
1,UniProt Q9BXP5_C441,inactive: 0.00234
2,TBCD C234 (UniProt Q9BTW9),inactive: 0.281
3,THUMPD3 C391 (UniProt Q9BV44),inactive: 0.0399
4,DDX24 C746 (UniProt Q9GZR7),inactive: 0.433
5,NUDT9 C207 (UniProt Q9BW91),inactive: 0.129
6,SCAPER C1301 (UniProt Q9BY12),inactive: 0.305
7,MRPL9 C221 (UniProt Q9BYD2),inactive: -0.201
8,TUBGCP2 C350 (UniProt Q9BSJ2),inactive: 0.175
9,DDX24 C639 (UniProt Q9GZR7),inactive: 0.032
10,AMBRA1 C571 (UniProt Q9C0C7),inactive: 0.257
11,C1orf50 C189 (UniProt Q9BV19),inactive: 0.17
12,TUBB6 C12 (UniProt Q9BUF5),inactive: 0.0468
13,SETD2 C958 (UniProt Q9BYW2),active: 1.02
14,ACAT2 C158 (UniProt Q9BWD1),inactive: -0.0336
15,WAC C553 (UniProt Q9BTA9),inactive: 0.791
16,UCK2 C241 (UniProt Q9BZX2),inactive: 0.554
17,XRN2 C296 (UniProt Q9H0D6),inactive: 0.209
18,UniProt Q9BSH4_C256,inactive: -0.207
19,ILKAP C301 (UniProt Q9H0C8),inactive: 0.378
